Test results taken from PubChem BioAssay AID2073 (Sanford-Burnham Center for Chemical Genomics, 2009).
The campaign covered roughly 290,000 compounds. About 570 (0.2%) were called active. Inconclusive results, whose numbers are uncertain, are shown with a selection of clear calls. No stated cut-off is given here; in the data, active means inhibition mostly above about 51% (no sharp cut-off); inconclusive means no clear call, values can overlap the other calls; inactive means mostly below about 53%.

The chains behind the UniProt entries cited, without tags or fusion partners.
UniProt Q00975, whole entry, looked up: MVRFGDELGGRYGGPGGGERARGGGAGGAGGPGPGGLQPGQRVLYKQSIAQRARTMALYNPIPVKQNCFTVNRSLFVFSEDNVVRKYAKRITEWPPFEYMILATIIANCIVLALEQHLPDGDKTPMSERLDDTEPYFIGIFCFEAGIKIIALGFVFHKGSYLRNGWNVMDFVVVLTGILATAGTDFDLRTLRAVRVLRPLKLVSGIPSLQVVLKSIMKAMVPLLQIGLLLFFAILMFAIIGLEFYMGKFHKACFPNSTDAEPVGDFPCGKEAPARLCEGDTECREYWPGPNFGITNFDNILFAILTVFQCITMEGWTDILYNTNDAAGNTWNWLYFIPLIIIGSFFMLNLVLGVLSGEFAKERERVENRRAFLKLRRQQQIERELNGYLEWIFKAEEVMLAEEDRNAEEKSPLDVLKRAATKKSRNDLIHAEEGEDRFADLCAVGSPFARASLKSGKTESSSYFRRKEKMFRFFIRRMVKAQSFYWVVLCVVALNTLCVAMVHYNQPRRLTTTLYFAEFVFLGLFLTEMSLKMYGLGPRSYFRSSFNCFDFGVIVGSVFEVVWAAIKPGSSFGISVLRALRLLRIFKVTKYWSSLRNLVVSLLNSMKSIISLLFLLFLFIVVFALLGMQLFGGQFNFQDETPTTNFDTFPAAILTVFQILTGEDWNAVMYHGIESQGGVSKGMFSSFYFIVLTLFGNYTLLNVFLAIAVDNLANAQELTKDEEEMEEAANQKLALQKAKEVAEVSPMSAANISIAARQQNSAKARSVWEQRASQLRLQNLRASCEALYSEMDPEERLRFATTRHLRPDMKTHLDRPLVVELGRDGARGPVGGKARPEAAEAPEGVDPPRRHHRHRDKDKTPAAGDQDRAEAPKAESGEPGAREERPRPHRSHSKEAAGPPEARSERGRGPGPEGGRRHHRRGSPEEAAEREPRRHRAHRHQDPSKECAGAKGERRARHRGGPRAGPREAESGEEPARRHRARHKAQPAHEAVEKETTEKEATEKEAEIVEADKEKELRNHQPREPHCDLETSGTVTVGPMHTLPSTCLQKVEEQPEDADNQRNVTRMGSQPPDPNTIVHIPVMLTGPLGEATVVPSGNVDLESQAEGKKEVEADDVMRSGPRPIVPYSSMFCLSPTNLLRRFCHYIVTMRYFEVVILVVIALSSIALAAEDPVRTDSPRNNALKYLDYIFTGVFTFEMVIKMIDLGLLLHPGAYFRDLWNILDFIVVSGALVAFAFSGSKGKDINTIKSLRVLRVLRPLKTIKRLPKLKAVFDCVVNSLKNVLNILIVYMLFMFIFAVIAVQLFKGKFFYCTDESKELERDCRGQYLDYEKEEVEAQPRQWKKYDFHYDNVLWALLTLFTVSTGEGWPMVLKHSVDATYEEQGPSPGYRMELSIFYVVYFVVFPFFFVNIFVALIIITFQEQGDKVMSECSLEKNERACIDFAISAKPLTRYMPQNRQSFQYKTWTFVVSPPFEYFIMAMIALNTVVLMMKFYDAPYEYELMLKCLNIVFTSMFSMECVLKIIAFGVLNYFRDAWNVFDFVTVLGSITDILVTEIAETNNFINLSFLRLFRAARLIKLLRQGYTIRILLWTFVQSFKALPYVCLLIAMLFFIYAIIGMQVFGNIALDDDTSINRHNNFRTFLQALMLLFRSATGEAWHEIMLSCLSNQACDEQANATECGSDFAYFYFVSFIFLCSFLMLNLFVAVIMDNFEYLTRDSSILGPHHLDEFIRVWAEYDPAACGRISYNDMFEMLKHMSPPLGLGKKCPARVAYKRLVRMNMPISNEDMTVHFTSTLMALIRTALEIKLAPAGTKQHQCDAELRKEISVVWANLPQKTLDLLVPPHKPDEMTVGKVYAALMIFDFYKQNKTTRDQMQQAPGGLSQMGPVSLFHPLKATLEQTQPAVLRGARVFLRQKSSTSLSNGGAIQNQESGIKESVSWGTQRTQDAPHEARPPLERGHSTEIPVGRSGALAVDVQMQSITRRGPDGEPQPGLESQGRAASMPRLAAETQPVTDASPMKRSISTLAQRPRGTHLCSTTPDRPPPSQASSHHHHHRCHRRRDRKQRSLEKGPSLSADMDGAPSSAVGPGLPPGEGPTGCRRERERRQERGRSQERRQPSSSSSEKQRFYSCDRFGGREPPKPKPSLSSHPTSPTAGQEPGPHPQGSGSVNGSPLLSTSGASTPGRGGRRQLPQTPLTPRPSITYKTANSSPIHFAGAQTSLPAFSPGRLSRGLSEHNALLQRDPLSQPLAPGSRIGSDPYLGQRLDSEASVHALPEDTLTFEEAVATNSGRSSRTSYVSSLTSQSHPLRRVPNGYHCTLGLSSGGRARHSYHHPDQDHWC

molecular target: Voltage-dependent N-type calcium channel subunit alpha-1B (Homo sapiens) (UniProt Q00975); test: disruptors of CaV2.2 binding to Mint1 – biochemical, HTRF (AID 2073); settings: HTRF protein-protein interaction, Mint1-CaV2.2; at 20 µM; active compounds read high

inhibition, inconclusive:
O=C(Nc1ccc(N2CCOCC2)c(Cl)c1)c1ncn[nH]1 55.5%
Cc1ccc(NC(=O)C(C)Sc2nnc(-c3cccnc3)o2)cc1 (stereo unspecified) 61.1%
COCCCn1c(C(=O)N2CC(C)OC(C)C2)cc2c(=O)n3ccccc3nc21 (stereo unspecified) 57.6%
Cc1cc(C)c(S(=O)(=O)Nc2ccncc2)cc1C 63.8%
COc1ccc(NC(=O)COC(=O)C2CCN(S(=O)(=O)c3cccs3)CC2)cc1 61.3%
Cc1ccccc1C(=O)N=c1ccn(-c2nc3ccccc3nc2NS(=O)(=O)c2ccc(F)cc2)cc1 50.1%
CCN1CCN(c2ccc(S(=O)(=O)N3CCCCC3)cc2NC(=O)COc2ccc(Cl)c(C)c2)CC1 57.7%
Cc1ccc2c(c1)C(=O)C(=O)N2CCCOc1ccccc1 53.6%
CC(/C=N/NC(=O)c1cc(-c2cccnc2)nc2c1c(C)nn2-c1ccccc1)=C\c1ccccc1 51.3%
COCCCNC(=O)c1ccc2nc3ccccc3c(=O)n2c1 66.6%
O=C(O)c1ccc(NC(=O)c2cn(-c3ccccc3)nc2-c2ccc(Br)cc2)cc1 65.2%
CCOc1cc(N2CCOCC2)c(OCC)cc1NC(=O)Cn1[nH]c(=O)c2ccccc2c1=O 54.3%
COc1ccccc1C1/C(=C(\O)c2ccc3c(c2)OCCO3)C(=O)C(=O)N1CCCn1ccnc1 (stereo unspecified) 69.8%
CC1(C)CN(c2cccc(-c3ccnc4ncnn34)c2)C1=O 56.3%
COc1ccccc1NC(=O)c1ccc(C)s1 52.2%
O=S1(=O)Nc2c(ccc3cccnc23)-c2ccccc21 56.3%
CCCCCC(=O)Nc1ccc2oc(-c3cccnc3)nc2c1 55.8%
Cn1c(CCC(=O)OCC(=O)NCc2ccc3c(c2)OCO3)nc(=O)c2ccccc21 83.2%
CC(Cc1nnc(N)s1)c1ccccc1 (stereo unspecified) 59.5%
Cn1cnnc1SCc1ccc(C(=O)N/N=C(\CCC(=O)O)c2ccc(C(C)(C)C)cc2)cc1 52%
COc1ccc(C2CC(c3ccccc3)=NN2c2ccccc2)c(C(=O)O)c1OC (stereo unspecified) 55.7%
O=C(c1cc(-c2ccccc2)nc2ccccc12)N1CCCC1 55.5%
O=C(COc1ccccc1F)Nc1ccc(S(=O)(=O)Nc2nccs2)cc1 64.7%
Brc1ccc(CSc2ccc(-c3ccco3)nn2)cc1 102%
N#C/C(=C/c1cn(-c2ccccc2)nc1-c1cccc(S(=O)(=O)N2CCCC2)c1)C(=O)NCc1ccco1 66.5%
O=C1OCC/C1=C\c1ccc(O)cc1 55.3%
Cc1cc2nc3c(=O)[nH]c(=O)[nH]c3nc2c([N+](=O)[O-])c1N 66.4%
CCN1CCCC1CN(Cc1cc2cc(C)ccc2[nH]c1=O)C(=O)Nc1ccccc1OC (stereo unspecified) 91.5%
COc1ccc(C(CC(=O)NCCCN2CCOCC2)NS(=O)(=O)c2ccc(C)cc2)cc1 (stereo unspecified) 71.5%
C=CCn1c(SCC(=O)O)nnc1-c1cccs1 69.3%
CC1=CC(C)(C)N2C(=O)C(=Nc3ccc(O)cc3)c3cccc1c32 94.6%
S=C(Nc1ccc(N2CCOCC2)cc1)Nc1ccc2nc(-c3ccco3)c(-c3ccco3)nc2c1 84.8%
CCOc1ccccc1N(CC(=O)Nc1ccc(OC)cc1OC)S(=O)(=O)c1ccccc1 54.5%
COc1cccc(-n2c(SCC(=O)N3CCCCC3)nc3c([nH]c4ccccc43)c2=O)c1 72%
Cc1cc(C)n(C(=O)c2cccc(S(=O)(=O)N3CCCCC3)c2)n1 53.8%
COc1cc(/C=N/NC(=O)CC#N)ccc1Oc1nc(Cl)ncc1F 53.7%
COc1cc(-c2nc(-c3ccccc3)c(-c3cccs3)[nH]2)cc(OC)c1O 59.7%
CCC(O)CNc1nc(-n2nc(C)cc2C)nc2sc3c(c12)CCCC3 (stereo unspecified) 73.4%
O=S(=O)(c1ccccc1)N1CCN=C1SCc1ccc(Cl)cc1 81.7%
C/C(=N/N=C1\SCC(=O)N1c1ccccc1)c1ccc(C)cc1 63.6%
Cc1ccc(/C=C2\SC(=S)N(CCC(=O)NNC(=O)c3ccc(O)cc3)C2=O)cc1 96.6%

Compounds from the list above with a furan ring, fused or not, in the order listed:
inhibition, inconclusive:
Brc1ccc(CSc2ccc(-c3ccco3)nn2)cc1 102%
N#C/C(=C/c1cn(-c2ccccc2)nc1-c1cccc(S(=O)(=O)N2CCCC2)c1)C(=O)NCc1ccco1 66.5%
S=C(Nc1ccc(N2CCOCC2)cc1)Nc1ccc2nc(-c3ccco3)c(-c3ccco3)nc2c1 84.8%

Following part:

inhibition, inactive:
CN(C)CCNc1c(N)c(=O)oc2ccccc12 -16.1%
Cn1cnnc1SCC(=O)Nc1sccc1C#N 2.2%
Cc1ccc(Nc2nc(=O)c3cccnc3s2)c(Br)c1 -13%
CCc1ccc2[nH]c(C(=O)Nc3ccc(Br)c(C)n3)cc2c1 5.3%
O=C(COC(=O)c1ccc(S(=O)(=O)Nc2ccccc2)cc1)NCc1ccco1 -1.1%
COc1ccccc1CNc1cc(CSc2ccc(Cl)cc2)nc(C)n1 -1.5%
CCCCCCc1nc(C(N)=O)c2[nH]c(=O)n(-c3ccccc3F)c2n1 10.4%
NNC(=O)c1oc2nc(-c3ccccc3)cc(-c3ccccc3)c2c1N 18.4%
CCCC(=O)N(Cc1cc(=O)[nH]c2ccccc12)c1ccc(C)cc1 14.9%
Cc1ccc(OCC(=O)N/N=C/C=C/c2ccco2)cc1 53.6%
CN1CCN(S(=O)(=O)c2ccc(Cl)cc2)CC1 5.7%
Nc1cc([N+](=O)[O-])ccc1O 2.9%
N=C1C(c2nc3ccccc3[nH]2)=C(O)CN1NC(=O)c1c[nH]c2ccccc12 2.4%
CC(=O)Nc1ccc(NC(=O)COC(=O)c2cnccn2)cc1 15.7%

inhibition, active:
COC(=O)CCC(NC(=O)c1cc(-c2ccc3c(c2)OCCO3)oc1C)C(=O)OC (stereo unspecified) 61.5%
